{"sequences": {"note": "Protein sequences, listed by entry. Tags and fused reporters are not part of them.", "UniProt Q8N884, whole entry": "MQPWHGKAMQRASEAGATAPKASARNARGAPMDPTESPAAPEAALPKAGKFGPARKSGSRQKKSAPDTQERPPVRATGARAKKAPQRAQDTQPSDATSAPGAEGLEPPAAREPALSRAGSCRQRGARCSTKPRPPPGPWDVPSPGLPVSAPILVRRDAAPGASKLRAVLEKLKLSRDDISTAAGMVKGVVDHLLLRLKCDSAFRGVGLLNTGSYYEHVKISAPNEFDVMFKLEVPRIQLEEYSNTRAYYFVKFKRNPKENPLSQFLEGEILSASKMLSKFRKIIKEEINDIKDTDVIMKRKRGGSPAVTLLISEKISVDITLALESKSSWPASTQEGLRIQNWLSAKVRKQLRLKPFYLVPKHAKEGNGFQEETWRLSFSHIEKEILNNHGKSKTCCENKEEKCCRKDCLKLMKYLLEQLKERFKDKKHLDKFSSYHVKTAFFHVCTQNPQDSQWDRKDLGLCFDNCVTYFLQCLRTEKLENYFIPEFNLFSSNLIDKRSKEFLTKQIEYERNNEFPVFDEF"}, "source": "paper PMC8943206", "target": "GFP-cGAS (human) (UniProt Q8N884)", "experiment": "in vitro phase separation (co-condensation)", "conditions": "recombinant protein, protein details: GFP, C-terminal 6xHis (pET-28a)", "note": "Where two headings read alike, the source gives them in different places. For at least one entry, the source does not settle the construct or the ends of the probe. At least one verdict was read from the data and is not stated in words by the source.", "data": [{"sequence": "AGACGGTATATTTTTGCGTTATCACTGTCCCGGATTGGACACGGTCTTGTGGGATAGGCATGCCCAGAAGGCATATTGGGTTAACCCCTTTTTATTTGTGGCGGGTTTTTTGGAGGACTT (double strand) [HSV120]", "values": [{"measurement": "binding result", "setting": "HSV120 2.5 uM, 5 min incubation (Fig. S8a). The SPR data are protein-protein (cGAS-PCBP2) and were left out", "value": "binds"}]}, {"sequence": "CCATCAGAAAGAGGTTTAATATTTTTGTGAGACCATGGAAGAGAGAAAGAGATAAAACTTTTTTACGACT (double strand) [VACV70]", "values": [{"measurement": "binding result", "setting": "indirect read-out: cGAS-DNA droplets, reduced by PCBP2 but not by KH3-deleted PCBP2, label: Cy3 at 5' end of sense strand when labelled", "value": "binds"}]}, {"sequence": "TACAGATCTACTAGTGATCTATGACTGATCTGTACATGATCTACA (double strand) [ISD45]", "values": [{"measurement": "binding result", "setting": "indirect read-out: cGAS-DNA droplets, reduced by PCBP2 but not by KH3-deleted PCBP2, HSV120 2.5 uM, 5 min incubation (Fig. S8a). The SPR data are protein-protein (cGAS-PCBP2) and were left out, label: Cy3 at 5' end of sense strand when labelled", "value": "binds"}]}]}
